In assay [1] the target is T1, hRIG-I-D495, FLAG- or V5-tagged, of the screen of glutamine amidotransferases (Fig. S4A) (human) (UniProt O95786).
T1 sequence: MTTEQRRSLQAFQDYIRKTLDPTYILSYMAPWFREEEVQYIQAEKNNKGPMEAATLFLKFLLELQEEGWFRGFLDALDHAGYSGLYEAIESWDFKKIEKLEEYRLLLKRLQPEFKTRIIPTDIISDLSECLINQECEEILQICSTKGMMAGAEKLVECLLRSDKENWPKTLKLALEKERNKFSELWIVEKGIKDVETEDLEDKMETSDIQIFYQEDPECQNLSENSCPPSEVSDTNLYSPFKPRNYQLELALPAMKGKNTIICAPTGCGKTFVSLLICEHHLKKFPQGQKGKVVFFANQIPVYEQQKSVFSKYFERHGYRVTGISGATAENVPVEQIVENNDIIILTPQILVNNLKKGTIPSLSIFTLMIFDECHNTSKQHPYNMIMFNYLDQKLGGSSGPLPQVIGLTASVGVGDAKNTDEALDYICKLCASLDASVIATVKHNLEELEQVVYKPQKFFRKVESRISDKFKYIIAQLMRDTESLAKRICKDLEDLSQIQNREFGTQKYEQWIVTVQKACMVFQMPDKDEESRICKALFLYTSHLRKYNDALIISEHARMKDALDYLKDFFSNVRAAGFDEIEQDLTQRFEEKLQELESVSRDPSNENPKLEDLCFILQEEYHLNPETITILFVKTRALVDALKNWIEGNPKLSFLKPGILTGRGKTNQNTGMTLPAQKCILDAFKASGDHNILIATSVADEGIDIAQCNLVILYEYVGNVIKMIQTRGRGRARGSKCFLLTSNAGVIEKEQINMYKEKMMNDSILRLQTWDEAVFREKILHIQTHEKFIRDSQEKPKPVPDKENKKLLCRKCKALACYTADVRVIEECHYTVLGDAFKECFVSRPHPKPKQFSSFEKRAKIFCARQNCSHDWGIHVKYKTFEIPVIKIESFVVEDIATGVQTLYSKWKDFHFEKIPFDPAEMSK
The assay is described as follows: co-IP; 293T cells stably expressing FLAG- or V5-tagged RIG-I transfected with indicated GATs; whole-cell lysates precipitated with anti-FLAG or anti-V5, immunoblot of GATs. In general terms: Immunoblotting shows a protein as a band on a membrane.

Amino acid sequences for entries named in this document (tags omitted). Residues count along the entry.
UniProt Q06203, residues 12-517: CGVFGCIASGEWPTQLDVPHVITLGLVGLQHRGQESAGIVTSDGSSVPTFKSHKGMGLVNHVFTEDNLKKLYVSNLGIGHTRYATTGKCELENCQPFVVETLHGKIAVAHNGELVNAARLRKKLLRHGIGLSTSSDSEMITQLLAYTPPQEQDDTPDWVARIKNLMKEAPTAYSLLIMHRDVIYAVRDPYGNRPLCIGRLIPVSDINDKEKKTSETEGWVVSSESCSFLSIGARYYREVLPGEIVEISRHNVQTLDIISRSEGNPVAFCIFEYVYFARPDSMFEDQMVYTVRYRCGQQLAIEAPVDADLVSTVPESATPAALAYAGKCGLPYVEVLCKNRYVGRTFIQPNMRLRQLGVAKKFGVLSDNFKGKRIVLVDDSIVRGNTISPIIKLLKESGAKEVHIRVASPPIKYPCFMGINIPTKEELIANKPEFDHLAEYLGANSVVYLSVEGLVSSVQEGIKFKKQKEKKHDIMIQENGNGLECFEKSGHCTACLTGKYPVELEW
UniProt P27708: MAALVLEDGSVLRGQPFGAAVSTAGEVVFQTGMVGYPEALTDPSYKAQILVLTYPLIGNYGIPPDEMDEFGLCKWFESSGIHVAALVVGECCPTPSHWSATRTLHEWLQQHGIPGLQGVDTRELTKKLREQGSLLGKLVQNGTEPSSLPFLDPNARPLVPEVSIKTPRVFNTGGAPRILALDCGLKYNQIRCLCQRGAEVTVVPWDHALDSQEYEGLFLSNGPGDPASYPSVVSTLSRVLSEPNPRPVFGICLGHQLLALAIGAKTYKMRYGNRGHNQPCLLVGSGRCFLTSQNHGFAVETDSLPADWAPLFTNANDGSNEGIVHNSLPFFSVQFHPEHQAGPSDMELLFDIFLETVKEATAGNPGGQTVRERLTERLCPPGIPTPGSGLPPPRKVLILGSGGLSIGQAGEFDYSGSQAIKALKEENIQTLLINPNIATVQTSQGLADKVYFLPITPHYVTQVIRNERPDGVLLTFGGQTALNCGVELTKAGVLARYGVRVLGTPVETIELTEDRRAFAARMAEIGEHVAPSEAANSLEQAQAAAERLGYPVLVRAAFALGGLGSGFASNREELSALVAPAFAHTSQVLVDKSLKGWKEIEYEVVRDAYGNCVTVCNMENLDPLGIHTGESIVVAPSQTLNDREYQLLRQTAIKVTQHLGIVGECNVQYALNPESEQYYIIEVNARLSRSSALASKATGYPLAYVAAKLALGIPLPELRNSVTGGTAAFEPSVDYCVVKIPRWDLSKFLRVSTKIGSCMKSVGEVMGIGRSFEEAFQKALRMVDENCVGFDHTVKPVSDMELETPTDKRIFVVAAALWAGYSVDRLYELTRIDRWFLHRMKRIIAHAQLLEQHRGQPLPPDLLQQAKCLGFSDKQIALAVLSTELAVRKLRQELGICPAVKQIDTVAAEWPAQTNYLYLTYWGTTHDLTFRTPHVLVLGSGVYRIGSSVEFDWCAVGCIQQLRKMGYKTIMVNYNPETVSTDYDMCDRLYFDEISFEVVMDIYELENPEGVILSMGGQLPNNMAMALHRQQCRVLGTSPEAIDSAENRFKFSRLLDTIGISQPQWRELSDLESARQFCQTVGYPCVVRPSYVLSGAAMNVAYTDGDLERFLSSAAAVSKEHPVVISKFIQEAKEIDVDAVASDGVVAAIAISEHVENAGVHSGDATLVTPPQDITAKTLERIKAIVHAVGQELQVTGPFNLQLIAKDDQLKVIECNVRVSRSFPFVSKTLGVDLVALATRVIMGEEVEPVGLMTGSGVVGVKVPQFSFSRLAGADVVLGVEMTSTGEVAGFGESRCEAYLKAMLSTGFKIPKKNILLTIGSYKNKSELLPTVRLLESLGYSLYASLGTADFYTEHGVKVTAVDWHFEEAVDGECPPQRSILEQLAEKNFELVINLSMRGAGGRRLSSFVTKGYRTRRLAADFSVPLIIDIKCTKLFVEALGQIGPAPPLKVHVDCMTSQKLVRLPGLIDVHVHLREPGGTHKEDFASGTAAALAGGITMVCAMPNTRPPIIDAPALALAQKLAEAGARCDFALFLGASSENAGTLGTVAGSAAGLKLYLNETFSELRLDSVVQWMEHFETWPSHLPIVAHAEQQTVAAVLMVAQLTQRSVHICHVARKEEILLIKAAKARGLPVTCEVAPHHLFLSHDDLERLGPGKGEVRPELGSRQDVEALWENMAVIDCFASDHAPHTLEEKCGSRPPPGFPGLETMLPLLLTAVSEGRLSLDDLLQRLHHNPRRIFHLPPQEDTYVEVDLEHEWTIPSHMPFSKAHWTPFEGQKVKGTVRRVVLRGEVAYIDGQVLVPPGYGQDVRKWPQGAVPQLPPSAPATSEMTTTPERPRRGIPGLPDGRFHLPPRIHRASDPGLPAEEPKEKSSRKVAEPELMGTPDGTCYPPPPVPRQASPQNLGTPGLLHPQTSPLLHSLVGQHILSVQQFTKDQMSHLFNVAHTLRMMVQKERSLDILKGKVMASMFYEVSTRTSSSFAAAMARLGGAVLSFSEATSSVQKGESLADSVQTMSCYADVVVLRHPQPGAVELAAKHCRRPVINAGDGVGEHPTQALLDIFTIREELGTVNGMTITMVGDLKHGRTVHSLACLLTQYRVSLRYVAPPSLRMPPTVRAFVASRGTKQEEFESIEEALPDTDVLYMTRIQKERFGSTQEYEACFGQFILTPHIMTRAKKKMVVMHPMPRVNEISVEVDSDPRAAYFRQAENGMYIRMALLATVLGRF

Assay [2] concerns the target T2, CTPS1, FLAG-tagged (human) (UniProt P17812).
T2 sequence: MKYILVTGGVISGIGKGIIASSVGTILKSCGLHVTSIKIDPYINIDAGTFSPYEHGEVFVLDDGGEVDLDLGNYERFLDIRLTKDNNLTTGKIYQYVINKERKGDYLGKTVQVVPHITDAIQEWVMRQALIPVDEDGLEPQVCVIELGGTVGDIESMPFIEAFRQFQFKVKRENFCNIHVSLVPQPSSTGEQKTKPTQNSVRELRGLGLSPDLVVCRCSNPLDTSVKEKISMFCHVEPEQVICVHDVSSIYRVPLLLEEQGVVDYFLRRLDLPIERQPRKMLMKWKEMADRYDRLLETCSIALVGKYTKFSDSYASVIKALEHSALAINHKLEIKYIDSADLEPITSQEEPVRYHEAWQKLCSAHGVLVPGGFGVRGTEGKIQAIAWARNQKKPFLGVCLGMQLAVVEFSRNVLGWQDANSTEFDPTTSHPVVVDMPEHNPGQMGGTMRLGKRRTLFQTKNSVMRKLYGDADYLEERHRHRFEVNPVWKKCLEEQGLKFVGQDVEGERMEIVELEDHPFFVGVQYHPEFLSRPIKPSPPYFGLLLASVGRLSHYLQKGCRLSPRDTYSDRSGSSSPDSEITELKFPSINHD
The assay is described as follows: co-IP; 293T cells transiently transfected with GST-tagged RIG-I-D495 and FLAG-tagged GATs (CTPS1 and PPAT); whole-cell lysates precipitated with anti-FLAG (GAT), immunoblot.

Assay [3] deals with phosphoribosylpyrophosphate amidotransferase (PPAT), FLAG-tagged (human) (UniProt Q06203). The assay is described as above.

Here are results for three molecules from article PMC8092204.

No constants are given. Whether binding was seen depends on the method and setting. In cells and extracts the contact can be indirect. Some results given as binding are weak or reduced against the parent protein; the word gives no strength. Tags and fused reporters may be left off the sequences shown.

Consider “CAD (from UniProt P27708 1-2225) (enzyme)”, for which the binding entry in assay [1] was “binds”.

B1: glutathione S-transferase (GST)-tagged RIG-I-D495 (protein, UniProt O95786 1-925)
chain: MTTEQRRSLQAFQDYIRKTLDPTYILSYMAPWFREEEVQYIQAEKNNKGPMEAATLFLKFLLELQEEGWFRGFLDALDHAGYSGLYEAIESWDFKKIEKLEEYRLLLKRLQPEFKTRIIPTDIISDLSECLINQECEEILQICSTKGMMAGAEKLVECLLRSDKENWPKTLKLALEKERNKFSELWIVEKGIKDVETEDLEDKMETSDIQIFYQEDPECQNLSENSCPPSEVSDTNLYSPFKPRNYQLELALPAMKGKNTIICAPTGCGKTFVSLLICEHHLKKFPQGQKGKVVFFANQIPVYEQQKSVFSKYFERHGYRVTGISGATAENVPVEQIVENNDIIILTPQILVNNLKKGTIPSLSIFTLMIFDECHNTSKQHPYNMIMFNYLDQKLGGSSGPLPQVIGLTASVGVGDAKNTDEALDYICKLCASLDASVIATVKHNLEELEQVVYKPQKFFRKVESRISDKFKYIIAQLMRDTESLAKRICKDLEDLSQIQNREFGTQKYEQWIVTVQKACMVFQMPDKDEESRICKALFLYTSHLRKYNDALIISEHARMKDALDYLKDFFSNVRAAGFDEIEQDLTQRFEEKLQELESVSRDPSNENPKLEDLCFILQEEYHLNPETITILFVKTRALVDALKNWIEGNPKLSFLKPGILTGRGKTNQNTGMTLPAQKCILDAFKASGDHNILIATSVADEGIDIAQCNLVILYEYVGNVIKMIQTRGRGRARGSKCFLLTSNAGVIEKEQINMYKEKMMNDSILRLQTWDEAVFREKILHIQTHEKFIRDSQEKPKPVPDKENKKLLCRKCKALACYTADVRVIEECHYTVLGDAFKECFVSRPHPKPKQFSSFEKRAKIFCARQNCSHDWGIHVKYKTFEIPVIKIESFVVEDIATGVQTLYSKWKDFHFEKIPFDPAEMSK
As to B1, the binding result in assay [2] and in assay [3] was “binds” in each case.

B2: CTPS2 (enzyme, UniProt Q9NRF8 1-586)
chain: MKYILVTGGVISGIGKGIIASSIGTILKSCGLRVTAIKIDPYINIDAGTFSPYEHGEVFVLNDGGEVDLDLGNYERFLDINLYKDNNITTGKIYQHVINKERRGDYLGKTVQVVPHITDAVQEWVMNQAKVPVDGNKEEPQICVIELGGTIGDIEGMPFVEAFRQFQFKAKRENFCNIHVSLVPQLSATGEQKTKPTQNSVRALRGLGLSPDLIVCRSSTPIEMAVKEKISMFCHVNPEQVICIHDVSSTYRVPVLLEEQSIVKYFKERLHLPIGDSASNLLFKWRNMADRYERLQKICSIALVGKYTKLRDCYASVFKALEHSALAINHKLNLMYIDSIDLEKITETEDPVKFHEAWQKLCKADGILVPGGFGIRGTLGKLQAISWARTKKIPFLGVCLGMQLAVIEFARNCLNLKDADSTEFRPNAPVPLVIDMPEHNPGNLGGTMRLGIRRTVFKTENSILRKLYGDVPFIEERHRHRFEVNPNLIKQFEQNDLSFVGQDVDGDRMEIIELANHPYFVGVQFHPEFSSRPMKPSPPYLGLLLAATGNLNAYLQQGCKLSSSDRYSDASDDSFSEPRIAELEIS
Turning to B2, in assay [1], the binding entry is “no binding”.
